Laboratory results as given in PubChem BioAssay AID2685 (National Center for Advancing Translational Sciences (NCATS), 2010).
Some of the results follow. Shown are side measurements of this screen, not its main read-out; they come without a call. The list favours compounds with an active or inconclusive main result. The note in brackets gives the kind of curve behind each potency; many fits are weak.

Assay: qHTS Assay for Lipid Storage Modulators in Drosophila S3 Cells;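 for cell number change: cells counted by Cell Tracker Red CMTPX staining in the red channel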
Conditions: BODIPY lipid droplet fluorescence, 18-24 h; for cell number change: measured here: cell count max response, cells fed with added oleic acid
In short: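 Laser-scanning cytometry quantifies lipid droplet accumulation (500–530 nm total intensity; droplet/cell object ratio) in oleic acid-fed (400 uM added) Drosophila S3 cells treated with a concentration series. 20 uM Triacsin C defined 100% inhibition.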

[1] = measured here: cell number channel AC50, cells fed with added oleic acid
[2] = measured here: lipid fluorescence (Fed channel) AC50, cells fed with added oleic acid

| SMILES | cell number change | AC50 [1] | AC50 [2] |
| --- | --- | --- | --- |
| CCC(C)c1ccc(S(=O)(=O)N2CCN(S(=O)(=O)c3ccc(NC(C)=O)cc3)CC2)cc1 (configuration not stated) | 82.1% | 29.1 µM [rising, single point] | 4.11 µM [falling, full curve] |
| Fc1ccc(-c2n[nH]c(=S)n2CC2CCCO2)cc1 (configuration not stated) | 24.9% | – | 2.91 µM [rising, single point] |
| CCc1[nH]nc2c1C(Cc1ccccc1)C(C#N)=C(N)O2 (configuration not stated) | – | 0.411 µM [falling, partial curve, poor fit] | 29.1 µM [rising, single point] |
| CCOc1ccc(CCNC(=O)COc2cccc(-n3cnnn3)c2)cc1OCC | -35.4% | 14.6 µM [falling, partial curve] | 13 µM [falling, single point] |
| Cc1cc([N+](=O)[O-])nn1CCCC(=O)NC(C)c1ccccc1 (configuration not stated) | 58.6% | 29.1 µM [rising, single point] | 20.6 µM [rising, single point] |
| CC1=CC(C)(C)N2C(=O)C3(C(C#N)=C(N)OC4=C3C(=O)CC(C)(C)C4)c3cccc1c32 (configuration not stated) | 20.2% | – | 0.411 µM [falling, single point] |
| Cn1c(CN2CCN(C(=O)c3ccccc3Cl)CC2)nc2cc([N+](=O)[O-])ccc21 | -17.8% | 6.51 µM [rising, partial curve] | – |
| Cc1cc(C(=O)COC(=O)c2ccc(O)cc2)c(C)n1CC1COc2ccccc2O1 (configuration not stated) | -100% | 29.1 µM [falling, partial curve, poor fit] | 13 µM [falling, partial curve] |
| COc1ccc(C2NC(C(=O)O)CS2)cc1COCC(F)(F)F (configuration not stated) | -6.83% | 0.00517 µM [falling, full curve, poor fit] | – |
| CCOC(=O)c1c(CN2CCN(C)CC2)oc2ccc(O)cc12 | -113% | 29.1 µM [falling, single point] | 29.1 µM [falling, single point] |
| Cc1ccc(S(=O)(=O)N2CCCCC2)cc1NC(=O)c1cncc(Br)c1 | -23.7% | 4.11 µM [falling, full curve, poor fit] | – |
| Nc1cc(=O)[nH]c(SCc2ccc(Cl)cc2)n1 | 9.08% | – | 0.0058 µM [falling, full curve, poor fit] |
| COC(=O)c1cc(S(=O)(=O)NCC2CCN(Cc3cccc(F)c3)CC2)c[nH]1 | -2.09% | – | – |
| O=C(CCS(=O)(=O)c1ccc(F)cc1)Nc1nnc(-c2cccs2)o1 | – | – | 6.51 µM [rising, single point] |
| O=C(c1ccccc1)c1ccc2cc(O)ccc2c1 | -56.8% | 29.1 µM [falling, single point] | 29.1 µM [falling, single point] |
| CC(C)Cc1cc(C(=O)N2CCCC(CO)(Cc3ccc(F)cc3)C2)no1 (configuration not stated) | 22.7% | – | – |
| CC(=O)c1cccc(NC(=O)Nc2ccccc2)c1 | – | 0.58 µM [falling, single point] | – |
| O=C(Nc1nnc(Cc2ccccc2)s1)c1cccnc1 | -17.7% | 0.411 µM [falling, full curve, poor fit] | 0.058 µM [falling, full curve, poor fit] |
| CCn1c(SCCC(=O)O)nnc1-c1cccnc1 | 3.67% | 6.51 µM [falling, single point] | 29.1 µM [falling, single point] |
| Cc1ccc(NC(=O)C2CCN(S(=O)(=O)c3ccc4c(c3)OCCCO4)CC2)nc1 | – | 6.51 µM [rising, single point] | 4.61 µM [falling, single point] |
| CC(=O)Cn1c2ccccc2n2nc(CCC(=O)O)c(=O)nc12 | -12.3% | 2.31 µM [falling, partial curve, poor fit] | 1.16 µM [falling, full curve, poor fit] |
| CSc1ccc(/C=C/C(=O)N2CCN(c3ccccn3)CC2)cc1 | 11.4% | – | 29.1 µM [falling, single point] |
| CCc1cc2c(C)ccc(C)c2nc1SCC(=O)Nc1c(C)[nH]c(=O)[nH]c1=O | 9.78% | – | 8.2 µM [rising, partial curve] |
| COc1ccc(CNc2c(C(=O)O)cnc3c2cnn3C)cc1 | -5.98% | 1.84 µM [falling, partial curve] | – |
| Cn1c(=O)c2c(nc(NCc3ccccc3)n2CCCc2ccccc2)n(C)c1=O | 98.1% | 2.31 µM [rising, full curve] | 4.11 µM [rising, partial curve] |
| Cc1ccc(S(=O)(=O)N(C)Cc2nc(-c3ccncc3)no2)cc1 | – | 2.59 µM [rising, partial curve] | – |
| COc1ccc(S(=O)(=O)N2CCC(C(=O)NCC3CC3)CC2)cc1 | 1.28% | 3.26 µM [rising, single point] | 5.17 µM [falling, single point] |

| SMILES | cell number change | AC50 [1] | AC50 [2] |
| --- | --- | --- | --- |
| O=C(c1ccccc1F)N1CCN(c2cccc(C(F)(F)F)c2)CC1 | -1.77% | 0.058 µM [falling, full curve, poor fit] | – |
| NS(=O)(=O)c1cccc(NC(=O)Cn2cnc3ccccc3c2=O)c1 | -11.7% | – | 23.1 µM [falling, partial curve] |
| O=C(CCc1ccccc1)Nc1cc2c3c(c1)CC(=O)N3CCC2 | 60.6% | 29.1 µM [rising, single point] | – |
| O=C(Cn1nnc2ccccc2c1=O)NCC1CCC(C(=O)O)CC1 (configuration not stated) | -23.4% | – | – |
| Cc1ccc(CNC(=O)Nc2ccc(OC(F)(F)F)cc2)n1C | 19.9% | – | 4.61 µM [rising, full curve, poor fit] |
| COc1ccc(S(=O)(=O)N(C)CC(=O)NCc2ccco2)cc1Cl | -21.8% | – | 29.1 µM [rising, single point] |
| COC(=O)c1[nH]c2ccccc2c1NC(=O)CN1CCN(C/C=C/c2ccccc2)CC1 | -44% | 29.1 µM [falling, single point] | 0.517 µM [rising, full curve] |
| O=C(Cn1cc2c(n1)CCCCC2)NCc1cccs1 | 21.6% | – | 23.1 µM [rising, partial curve, poor fit] |
| COc1ccc(NC(=S)Nc2cnc3ccccc3c2)c(OC)c1 | 14.9% | – | 35.5 µM [rising, single point] |
| O=C(Nc1ccn(C2CC(OC(=O)c3ccccc3)C(CO)O2)c(=O)n1)c1ccccc1 (configuration not stated) | -12% | – | 0.00461 µM [falling, full curve, poor fit] |
| O=C(NCCc1ccccc1)c1cc2sccc2n1Cc1ccccc1 | -8.98% | – | 29.1 µM [falling, single point] |
| COc1ccc(CCNC(=O)[C@H](C)N2C(=O)N3CCc4c([nH]c5ccccc45)[C@@]3(C)C2=O)cc1 | -34.6% | 20.6 µM [falling, single point] | 29.1 µM [falling, single point] |
| O=C(N/N=C(\c1ccccc1)c1cccnc1)c1cccc(F)c1 | -54% | 29.1 µM [falling, single point] | 29.1 µM [falling, single point] |
| Cc1cc(-n2c(SCC(=O)NCc3cccs3)nc3n[nH]c(C)c3c2=N)ccc1Cl | -25.8% | – | 29.1 µM [falling, single point] |
| Cc1nnc(NC(=O)C2CCCN(c3ncccn3)C2)s1 (configuration not stated) | 21.8% | – | 0.731 µM [rising, single point] |
| Cc1ccc(S(=O)(=O)N2CCOCC2)cc1NC(=O)CSc1nnc(NC2CC2)s1 | 9.34% | – | 6.51 µM [rising, single point] |
| COc1cc(OC)c(NC(C)C(=O)N2CCCC2)cc1Cl (configuration not stated) | 50.5% | 29.1 µM [rising, single point] | – |
| O=C1C2CC=CCC2C(=O)N1c1ccc(OCC(O)Cn2nnc3ccccc32)cc1 (configuration not stated) | 99.2% | – | – |
| COc1cc(/C=C/C(=O)OCC(=O)Nc2ccccc2Sc2ccc(Cl)cc2)ccc1O | 31.1% | 29.1 µM [rising, single point] | – |
| COc1ccc(C2=NN(c3ccccc3)C(c3ccc(OC)c(OC)c3)C2)cc1 (configuration not stated) | -43.1% | 14.6 µM [falling, single point] | 32.6 µM [falling, partial curve, poor fit] |
| O=[N+]([O-])c1cccc(CNc2ccc3c(c2)CCC3)c1 | -12.1% | – | 29.1 µM [rising, single point] |
| COc1ccc(/C=C/C(=O)Nc2c(C)nn(C)c2C)cc1COc1ccc(Cl)cc1Br | -36.3% | 29.1 µM [falling, single point] | 29.1 µM [falling, single point] |
| N/C(=N\OC(=O)CSc1ccccc1)c1cccc([N+](=O)[O-])c1 | 27.6% | – | 23.1 µM [rising, single point] |
| COc1ccc(CN2CCN(CCc3ccccc3)C(CCO)C2)c(O)c1 (configuration not stated) | 2.65% | – | 0.0116 µM [rising, single point] |
| Cc1c(C(=O)N2CCCC2)nnn1-c1nonc1N | -97.7% | 32.6 µM [falling, partial curve] | 0.00461 µM [falling, full curve, poor fit] |
| O=S(=O)(Nc1ccc(-c2nc3cccnc3s2)cc1)c1ccccc1F | 8.07% | – | 0.82 µM [rising, full curve, poor fit] |
| COc1ccc(-c2cc(=O)oc3c(C)c(O)c(CN(C)C)cc23)cc1 | – | 0.0259 µM [rising, full curve] | – |

Single records, from the list above. Order of values: cell number change | AC50 [1] | AC50 [2]
O=[N+]([O-])c1cccc(CNc2ccc3c(c2)CCC3)c1 reads -12.1% | – | 29.1 µM [rising, single point]
COc1ccc(S(=O)(=O)N(C)CC(=O)NCc2ccco2)cc1Cl reads -21.8% | – | 29.1 µM [rising, single point]
CCc1cc2c(C)ccc(C)c2nc1SCC(=O)Nc1c(C)[nH]c(=O)[nH]c1=O reads 9.78% | – | 8.2 µM [rising, partial curve]
